{"source": "paper PMC9048505", "about": "(RSC Advances, 2020)", "system": "MCF-7", "assay": "In vitro anti-proliferative activity, MTT assay, MCF-7", "assay_type": "cell-based", "conditions": "Homo sapiens, MCF7, 24 h, read-out: IC50 MCF-7", "description": "Colchicine was used as a positive control. […] The cells were obtained from ATCC (American Type Culture Collection) via the Holding company for biological products and vaccines (VACSERA) (Cairo, Egypt). The anti-cancer activity was measured quantitatively as follows: Into a medium of RPMI-1640 with 10% fetal bovine serum, the cell lines were cultured. Then, penicillin (100 units per mL) and streptomycin (100 μg mL^−1) were added at 37 °C in a 5% CO2 incubator. […] After incubation period, the cell lines were treated with different concentration of the synthesized compounds and incubated for 24 h. After treatment by 24 h, 20 μL of MTT solution (5 mg mL^−1) was added and incubated for 4 h. Dimethyl sulfoxide (100 μL) was added into each well to dissolve the formed purple formazan. The colorimetric assay was measured and recorded at absorbance of 570 nm using a plate reader (EXL 800, USA). The relative cell viability in percentage was calculated as (A570 of treated samples/A570 of untreated sample) X 100.", "data": [{"compound": "COc1cc2c(c(OC)c1OC)-c1ccc(OC)c(=O)cc1[C@@H](NC(C)=O)CC2", "note": "[Colchicine, reference compound]", "values": [{"measurement": "IC50", "result": "10.5 ± 0.3", "unit": "µM"}]}]}
